{"source": "patent US20130210903", "note": "For at least one entry, the source does not settle the construct or the ends of the probe. Where a protein sequence is shown, tags need not be part of it."}
{"molecular_target": "T1, Glycoprotein VI (GPVI), soluble purified extracellular domain (Homo sapiens) (UniProt Q9HCN6)", "T1 sequence (looked up, limits assumed)": "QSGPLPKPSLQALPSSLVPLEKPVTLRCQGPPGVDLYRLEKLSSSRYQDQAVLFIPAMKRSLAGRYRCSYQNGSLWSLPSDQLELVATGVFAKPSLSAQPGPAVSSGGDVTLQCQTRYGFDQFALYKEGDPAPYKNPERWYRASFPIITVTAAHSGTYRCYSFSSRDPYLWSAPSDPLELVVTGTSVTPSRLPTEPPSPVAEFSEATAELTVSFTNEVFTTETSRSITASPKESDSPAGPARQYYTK", "assay": "FP filter", "settings": "2'-F modified RNA; purified recombinant protein"}
{"sequence": "GGGAGGACGAUGCGGGUGACGUGGACGGCGACAGCCCAGCAUAAGCCACGUGUGACAGACGACUCGCUGAGGAUCCGAGA [GPVI aptamer SEQ ID NO:34]", "binding result": "binds"}
{"sequence": "GGGAGGACGAUGCGGGCACCCAAAACAGGGGCUCACGUCUGGCAUAAGCCUGCCCACAGACGACUCGCUGAGGAUCCGAGA [GPVI aptamer SEQ ID NO:13]", "binding result": "binds"}
{"sequence": "GGGGAGGACGAUGCGGACAGUGUCACACACUUUGCGUAAGCCGCUAGCCCCCUCCGCAGACGACUCGCUGAGGAUCCGAGA [GPVI aptamer SEQ ID NO:4]", "binding result": "binds"}
{"sequence": "GGGAGGACGAUGCGGCAUCAGACUGCAUCCAGCAUAAGCCACCACCAGAGACCGUCAGACGACUCGCUGAGGAUCCGAGA [GPVI aptamer SEQ ID NO:11]", "binding result": "binds"}
{"sequence": "GGGAGGAACGAUGCGGGUGACGUGGACGGCGACAGCCCAGCAUAAGCCACGUGUGACAGACGACUCGCUGAGGAUCCGAGA [GPVI aptamer SEQ ID NO:12]", "binding result": "binds"}
{"sequence": "GGGAGGACGAUGCGGCGAGUGUAAGCAUCACUGCAUCUAGCGUAAGCCACCCAAACAGACGACUCGCUGAGGAUCCGAGA [GPVI aptamer SEQ ID NO:7]", "binding result": "binds"}
{"sequence": "GGGAGGACGAUGCGGACGGCCAAACGCCUAGCAUAAGCCCAUCAGUCACUCCCACCAGACGACUCGCUGAGGAUCCGAGA [GPVI aptamer SEQ ID NO:33]", "binding result": "binds"}
{"sequence": "GGGAGGACGAUGCGGGUGACGUGGACGGCGACAGCCCAGCAUAAGCCACGUGUGACAGACGACUCGCUGAGGAUCCGAGA [GPVI aptamer SEQ ID NO:45]", "binding result": "binds"}
